Measurements published in patent US20170173106A1, “Polypeptide Fragments of 168A-T2 and Compositions Comprising Them for Use in Treating Cancer” (GENE SIGNAL INTERNATIONAL SA, priority 2014, published 2017).
At least one peptide structure holds a part that was inferred or is arguable (an end, a ring closure or a residue). Ends that are not written are not given here.

Tests used:
[1] = biological target: T1, CD9 and CD81 association (Homo sapiens, UniProt P21926+P60033); assay: Immunoprecipitation in HUVECs: CD9 with CD81; type: cell-based; details: 33 μM; 2 h
T1 construct: endogenous in cells; host or cells: HUVEC
T1 sequence (P21926 2-228 limits assumed): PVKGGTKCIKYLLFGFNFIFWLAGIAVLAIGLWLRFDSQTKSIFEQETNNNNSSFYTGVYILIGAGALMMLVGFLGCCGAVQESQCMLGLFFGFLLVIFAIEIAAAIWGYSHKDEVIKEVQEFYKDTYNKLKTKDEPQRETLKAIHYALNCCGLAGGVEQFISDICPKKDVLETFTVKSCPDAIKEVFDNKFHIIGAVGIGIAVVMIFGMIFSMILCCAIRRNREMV
T1 sequence (P60033 1-236): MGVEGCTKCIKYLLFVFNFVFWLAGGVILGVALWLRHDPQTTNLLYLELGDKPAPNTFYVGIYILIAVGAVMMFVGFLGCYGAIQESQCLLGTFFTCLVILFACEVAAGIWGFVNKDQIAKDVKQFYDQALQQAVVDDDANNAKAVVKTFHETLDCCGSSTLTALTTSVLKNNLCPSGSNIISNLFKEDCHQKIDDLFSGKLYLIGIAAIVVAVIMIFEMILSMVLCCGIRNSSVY

[2] = tested on: Matrigel® implants enriched in NCI-H460 cells; assay: Angiogenesis test in vivo (Matrigel implants, hemoglobin); design: species or system mice; details: 10 mg/kg intraperitoneal daily for 12 days
Protocol: Implants of Matrigel® represent an in vivo model of angiogenesis. NCI-H460 cells are used to provide growth factors necessary for blood vessels formation within the Matrigel® matrix. The mixture was then injected sub-cutanously in the Swiis nu/nu mice. Daily treatments with the peptides (1 mg/mL) were performed by injections intraperitoneally. Implants were collected after 12 days.
The dosage of hemoglobin in implants was used as an indicator of the vessels of the implant. The implants were weighted and crushed.
An in vivo model of angiogenesis as described in Passaniti et al. (1992 Experimental gerontology 27, 559-566) was utilized to evaluate the effect of P3 and P4. Briefly, cancer cells were incorporated into Matrigel®, cancer cells provide growth and angiogenic factors necessary for blood vessel formation. The mixture was injected immediately under a sub-cutaneous form of the mice flanks. […]

[3] = tested on: HUVECs; assay: Migration test following the wound test; type: cell-based, human; details: 20 hrs
Protocol: The migration of the cells was evaluated according to the wound test (Sato and Rifkin 1988 J Cell Biol 107, 1199-1205). HUVECs were cultivated to confluence in an EGM2-MV media. The wound width was measured using the software “Analysis” (Soft Imaging System Gmbh Digital, Olympus). Peptides to be tested were then added to the media.
A wound has been performed with a chisel tip on the cell layer. The HUVECs migration following the addition of peptides was evaluated by the wound assay and the progress of the migration front of the HUVECs was analyzed after 20 hrs of culture. […] Pictures were shot with a microscope equipped with a camera (zoom ×40).

Q: GNYYCSVTPWVKS [P3] was tested. Which “association between CD9 and CD81” value [1] did it give?
A: but not between CD9 and CD81

Q: What about the “inhibition of hemoglobin amount in implants compared to group 1 (solvent)” value [2] of the same sequence?
A: 67.2±6.5%

Q: What about the color of implants ([2]; implants collected day 13) of the same sequence?
A: yellow color with some red points

Q: And the “wound closure / HUVECs migration” value ([3]; 13 μM)?
A: partial inhibition

Q: And the “wound closure / HUVECs migration” value ([3]; 33 μM)?
A: prevent completely
